Percent effect of library compounds

Mtb cholesterol medium: 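Whole-cell growth test on Mycobacterium tuberculosis, read after 4 days in a medium based on cholesterol and the lipid DPPC; the read-out is not stated. Concentration: 50 µM. Higher reads as more growth inhibition (inferred: compounds with an IC50 in retests scored well above the rest). About 69,000 compounds were tested under these conditions; 0.54% (about 370) showed 50% or more at least once.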
Mtb glucose medium: 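Phenotypic screen: M. tuberculosis growth, glucose 7H9 medium, 3 days; the read-out is not stated. Tested at 50 µM. The record gives no direction; compounds that gave an IC50 in retests scored well above the rest, so higher reads as more growth inhibition. About 69,000 compounds were tested under these conditions; 1.1% (about 760) showed 50% or more at least once.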

Each number is a percent effect as filed.
How 0% and 100% were set is not recorded. Most values in the screen are low, and negative values occur.
The compounds are a random part of those screened.
Two or more numbers in one place are separate tests of the same structure; such repeats can differ widely.

structure	Mtb cholesterol medium	Mtb glucose medium
CCc1csc(CNc2nc3c(s2)c(C)nn3C)n1	7.307% & -11.35%	-28.63% & -1.227%
Cn1cnc(C(=O)N2CC3(CCN(S(=O)(=O)c4ccccc4)C3)C2)c1	-11.15%	-15.2% & -5.107%
CC(C)(C)OC(=O)Cn1cccc(S(=O)(=O)N2CCCCCC2)c1=O	-13.85%	-2.429%
COC(=O)[C@H](C)NC(=O)c1cc(-c2cccc(Cl)c2)no1	53.24%	58.93% & 52.36%
CC1CN(C(=O)CCc2cc(Br)cs2)CCO1 (stereo not shown)	31.64% & 42.53%	12.81%
CCc1cc(=O)n(CC(=O)N2CCC(C)CC2)c(-c2ccccc2)n1	-11.29%	-15.18%
O=C1CCN(C(=O)NCCCc2ccc(Cl)cc2Cl)CCN1	-8.634% & -1.441%	30.78%
COCCNC(=O)c1cc(C2CC2)nc2onc(C3CCNC3)c12 (stereo not shown)	-1.76%	-7.473%
[H][C@@]12OCCC[C@]1([H])N(C(=O)c1cnc(C)cn1)C[C@@H]2N1CCOCC1	-18.24%	-3.8%
CC(NC(=O)CNS(C)(=O)=O)c1ccccc1Oc1ccccc1 (stereo not shown)	11.4%	-4.48%
CCn1c(CN(C)C(=O)c2ccc(N(C)C)nc2)nc2ccccc21	-16.52%	-19.06%
Cc1cc2cccc(C(=O)N3CC[C@](C)(O)[C@H](C)C3)c2o1	-30.99%	-67.94% & -6.514%
Cc1cc(N2CCCC2)nc(N(C)CCO)c1C#N	14.41%	9.83% & 5.463%
COc1cc(I)c(Cl)cc1C(=O)N(C)C	-12.65%	-8.449%
CCCn1ncc(C(=O)NCc2n[nH]c3c2CCCCC3)c1C	13.41%	8.286% & -23.78%
CC(C)(C)c1noc(OCC(=O)NCC(F)(F)F)n1	-1.8%	-3.521% & 30.61%
CCCc1ccc(OCCNCc2ccco2)c(OC)c1.Cl	19.14%	33.75%
O=C(Cc1cccc2ccccc12)N1CCC(Nc2cccnn2)CC1	-6.82%	20.6%
O=C(c1cc2c(s1)CCC2)N1CCCCC1Cn1cccn1 (stereo not shown)	-12.81%	0.007918%
CC(c1ncc(C(C)(C)C)o1)N1CCN(Cc2ccncc2)CC1 (stereo not shown)	-13.57%	13.06%
CCN1C(=O)CCCC12CCCN(C(=O)c1ccsc1)C2 (stereo not shown)	-16.16%	-22.29% & -1.188%
CN(C)Cc1cnc(C2CCN(C(=O)c3cccc(F)c3)C2)[nH]1 (stereo not shown)	-6.71% & -7.697%	-39.1%
CCC(=O)N1CCc2nc3cc(OC)c(OC)cc3c(=O)n2CC1	-12.65%	-13.71%
COc1cccc(-c2n[nH]c3c2CN(C(=O)c2cccc(=O)[nH]2)CC3)c1	-4.061% & -6.067%	4.491%
COc1ccc2cc(C(=O)NCCc3nc(C)no3)[nH]c2c1	-1.577%	-4.268%
Fc1ccc(N2CCOC3(COCCN(c4ncccn4)C3)C2)cc1.O=C(O)C(F)(F)F (stereo not shown)	-5.774% & 3.589%	-5.03%
[H][C@@]12CN(S(=O)(=O)c3cccc(C)c3)C[C@]1([H])OCCN2C(C)C	9.801%	-2.116% & -8.503%
Cc1nc(C)n(CC2CCCN2Cc2nc3ccccc3n2C)n1 (stereo not shown)	-13.12%	0.8529%
O=C(c1cc(C2CC2)nc2onc(-c3ccccc3)c12)N1CCOCC1	-4.236%	9.67% & -3.596%
CCc1ncc(C(=O)N2CCCC2Cn2cccn2)s1 (stereo not shown)	-6.9%	9.634%
Cc1ccc(-c2nc(CN3CCc4nn(C)c(=O)cc4C3)co2)cc1	11.45%	-5.594%
CCc1nc(CN(C)CC2CCN(CCO)CC2)no1	13.46%	2.476%
CS(=O)(=O)NC(=O)c1ccn(-c2cccc(Br)c2)n1	9.43%	1.239%
CC(=O)N1CCOC(CCc2cc(-c3c(C)noc3C)ncn2)C1 (stereo not shown)	22.59% & 2.142%	-13.42%
CCOC(=O)c1nc(COc2ccc(CC(N)=O)cc2)no1	-17.87%	2.333%
[H][C@@]12CCNC[C@]1([H])N(C(=O)C1CCCCC1)C2	-22.82%	-6.746%
C[C@@H]1CN(Cc2cc(C3CCCCC3)no2)CC[C@@]1(O)C1CC1	5.838% & 15.73%	14.9% & -4.694%
[H][C@]12CC[C@](O)(CC1)C(CO)N2C(=O)c1ccco1 (stereo partly shown)	0.9524%	18.48%
O=C(O)C(F)(F)F.O=C(O)C(F)(F)F.[H][C@@]12CN(CCOC)CCO[C@]1([H])CN(S(=O)(=O)c1cccnc1)C2	-9.614%	5.545%
Nc1c(C(=O)C2CCCN(C(=O)C3CC3)C2)cnn1-c1ccc(F)cc1 (stereo not shown)	-0.5149% & 1.292%	9.475%
CCc1ccc(C(=O)N2CCN(CC(O)CC)CC2)o1 (stereo not shown)	-2.497%	-90.38% & -5.325%
c1cc2c(cc1-n1nc(C3CC3)nc1-c1csnn1)OCCO2	3.672%	9.679%
CNS(=O)(=O)CCn1cc(-c2ccc(OC)c(OC)c2)nn1	-15.33%	11.56%
O=C(O)C(F)(F)F.O=C(O)C(F)(F)F.[H][C@@]12CN(c3ncccn3)C[C@]1([H])[C@@H]2CC(=O)Nc1cccnc1	-17.09%	-8.961%
O=C(O)C(F)(F)F.c1ccc(C[C@H]2CN(Cc3nccs3)CC[C@@H]2OCC2CC2)cc1	5.873%	9.688%
CN(CCCc1nccn1C)C(=O)C1CCN(C(=O)C2CC2)CC1	5.183%	-5.796%
O=C(O)C(F)(F)F.O=C(O)C(F)(F)F.[H][C@@]12COC[C@]1(COc1ccccn1)CN(c1ncccn1)C2	6.218%	18.3%
Cc1cc(N(C)Cc2cc(C(C)(C)C)n[nH]2)nc(-c2cccnc2)n1	-53.61%	-56.88%
CCOC1COC2(CCN(Cc3cccc(F)c3)CC2)C1.O=C(O)C(F)(F)F (stereo not shown)	14.22%	-5.827%
[H][C@]12CN(CC3CC3)C(=O)[C@@]1([H])CN(S(=O)(=O)C1CC1)C2	-4.368%	-23.47%
Cc1nn(C)c(N(C)C)c1CNC(C)COc1ccc(F)cc1F (stereo not shown)	3.431%	8.691%
O=C(NC1CC1)c1nc2c(s1)CCCN2c1ccccc1	27.85%	33.69% & 31.1%
O=C(O)C(F)(F)F.O=C(O)C(F)(F)F.c1ccc(N2CCC3(COCCN(c4ncccn4)C3)C2)nc1 (stereo not shown)	2.339%	15.56%
COC(=O)N1CCCN(C(=O)NC2CCc3ccccc3C2)CC1 (stereo not shown)	2.852%	16.8%

3 of the entries, repeated:

structure,Mtb cholesterol medium,Mtb glucose medium
c1cc2c(cc1-n1nc(C3CC3)nc1-c1csnn1)OCCO2,3.672%,9.679%
O=C(O)C(F)(F)F.O=C(O)C(F)(F)F.[H][C@@]12CN(c3ncccn3)C[C@]1([H])[C@@H]2CC(=O)Nc1cccnc1,-17.09%,-8.961%
O=C1CCN(C(=O)NCCCc2ccc(Cl)cc2Cl)CCN1,-8.634% & -1.441%,30.78%

From ChEMBL document CHEMBL3988442, “University of Dundee, Small-Polar-MMV Screening Library” (2021).